Out of some 400,000 compounds screened, about 13,000 (3.2%) were called active. Inconclusive results, whose numbers are uncertain, are shown with a selection of clear calls. The call rests on the fitted dose curve; in most records, active means well fitted cell-killing curve with a large enough effect; inconclusive means small, poorly fitted or top-dose-only effect, or effect the other way; inactive means flat fitted curve, though single readings scatter. A potency beside an inconclusive call is a rough fit, not a confirmed value.
experiment: qHTS assay for MDR1-selective chemotherapeutics: Primary screen using the drug-selected MDR subline cells KB-V1; settings: KB-V1 MDR cells viability, CellTiter-Glo, 72 h; activity change, negative = cytotoxicity: at 46.1 µM (top of the series); further: nearly all actives have a fitted effect of over 60% in size
How it was run: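 KB-V1, DMEM (no phenol red) + 10% FBS; cpd pin-transferred, titration series; 72 h, 37 degrees C; CellTiter-Glo, luminescence. Data normalized, curve-fit.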
On the % scale 0 is the no-effect control and ±100 the full control effect; potency means the concentration at half of the fitted maximal effect.

Row | SMILES | activity change, negative = cytotoxicity | Potency
1 | O=C(CCc1c[nH]c2ccccc12)OCC(=O)N1CCN(S(=O)(=O)c2ccccc2)CC1 | inactive: 3.69% | 
2 | COc1ccc(C=CC(O)CCN2CCC3CCC(C3)C2)cc1 (stereo not given) | inactive: -2.24% | 
3 | CCN(CC)CCNC(=O)c1c(C)n(-c2ccccc2)c2cc(Br)c(OC)cc12 | inactive: -28.1% | 
4 | COc1cc(/C=N/NC(=O)Cc2nnc(N)s2)cc(OC)c1OC | inactive: 5.81% | 
5 | CCCCn1c(N)c(N(CC(C)C)C(=O)C(C)SCc2nc3sc(C)c(C)c3c(=O)[nH]2)c(=O)[nH]c1=O (stereo not given) |  | inconclusive: 29.1 µM [rising, single point]
6 | C(=C\c1ccccc1)/CN1CCN(C(c2ccccc2)c2nnnn2C2CCCC2)CC1 (stereo not given) | inactive: 12.7% | 
7 | Cc1cccc2sc(=S)[nH]c12 | inactive: -4.76% | 
8 | CC(OC(=O)/C=C/c1ccc2ccccc2n1)C(=O)N(C)c1ccccc1 (stereo not given) |  | inconclusive: 32.6 µM [cytotoxic, single point]
9 | Cc1cc2c(cc1C)-c1nnnn1C(N1CCCCC1)C(=O)N2 (stereo not given) |  | inconclusive: 20.6 µM [cytotoxic, single point]
10 | CCN1CCN(C2=C(NS(=O)(=O)c3ccc(C)cc3)C(=O)c3ccccc3C2=O)CC1 |  | inconclusive: 29.1 µM [cytotoxic, single point]
11 | CCN(CC)C(=O)Cn1cc(SCC(=O)Nc2cc(C)on2)c2ccccc21 |  | inconclusive: 14.6 µM [cytotoxic, single point]
12 | Cn1c(CCC(=O)OCC(=O)NCc2ccccc2Cl)nc(=O)c2ccccc21 |  | inconclusive: 18.4 µM [rising, single point]
13 | O=c1[nH]c(-c2ccccn2)nc2ccccc12 | inactive: -63.6% | 
14 | CCc1cc(=O)oc2c3c(cc(OCC(=O)NCc4ccccn4)c12)OC(C)(C)CC3 |  | inconclusive: 29.1 µM [cytotoxic, single point]
15 | Cc1onc(-c2ccccc2Cl)c1C(=O)Oc1cccc2cccnc12 |  | inconclusive: 18.4 µM [cytotoxic, partial curve, poor fit]
16 | Cc1cccc(NC(=O)Cn2c(=O)n(CC3CCCO3)c(=O)c3ccccc32)c1 (stereo not given) |  | inconclusive: 13 µM [cytotoxic, partial curve, poor fit]
17 | O=C(NCCNCc1ccc(F)cc1)c1ccco1 | inactive: 17.5% | 
18 | Cc1c(C(=O)c2ccc3c(c2)OCO3)ccc2c1OCO2 |  | inconclusive: 18.4 µM [cytotoxic, single point]
19 | CCN1c2ccccc2-c2nc(SCC(=O)NCc3ccc(C)cc3)ncc2S1(=O)=O | inactive: 11% | 
20 | CCOc1ccccc1N(CC(=O)Nc1ccccc1C(=O)NCc1ccco1)S(C)(=O)=O |  | inconclusive: 2.59 µM [cytotoxic, full curve]
21 | CCC(=O)c1ccc(OCC(=O)Nc2cccc(S(=O)(=O)N3CCCCCC3)c2)cc1 | inactive: -8.43% | 
22 | C[C@H](CO)N1C[C@H](C)[C@H](CN(C)Cc2cccc(F)c2)Oc2ncc(Br)cc2C1=O |  | inconclusive: 0.326 µM [cytotoxic, full curve]
23 | C#Cc1ccc(NC(=O)C2(C)CCN2C(=O)Cc2ccc(-c3ccccc3)cc2)cc1 (stereo not given) |  | inconclusive: 18.4 µM [cytotoxic, single point]

Excerpt: entries 4–16
Row | SMILES | activity change, negative = cytotoxicity | Potency
4 | COc1cc(/C=N/NC(=O)Cc2nnc(N)s2)cc(OC)c1OC | inactive: 5.81% | 
5 | CCCCn1c(N)c(N(CC(C)C)C(=O)C(C)SCc2nc3sc(C)c(C)c3c(=O)[nH]2)c(=O)[nH]c1=O (stereo not given) |  | inconclusive: 29.1 µM [rising, single point]
6 | C(=C\c1ccccc1)/CN1CCN(C(c2ccccc2)c2nnnn2C2CCCC2)CC1 (stereo not given) | inactive: 12.7% | 
7 | Cc1cccc2sc(=S)[nH]c12 | inactive: -4.76% | 
8 | CC(OC(=O)/C=C/c1ccc2ccccc2n1)C(=O)N(C)c1ccccc1 (stereo not given) |  | inconclusive: 32.6 µM [cytotoxic, single point]
9 | Cc1cc2c(cc1C)-c1nnnn1C(N1CCCCC1)C(=O)N2 (stereo not given) |  | inconclusive: 20.6 µM [cytotoxic, single point]
10 | CCN1CCN(C2=C(NS(=O)(=O)c3ccc(C)cc3)C(=O)c3ccccc3C2=O)CC1 |  | inconclusive: 29.1 µM [cytotoxic, single point]
11 | CCN(CC)C(=O)Cn1cc(SCC(=O)Nc2cc(C)on2)c2ccccc21 |  | inconclusive: 14.6 µM [cytotoxic, single point]
12 | Cn1c(CCC(=O)OCC(=O)NCc2ccccc2Cl)nc(=O)c2ccccc21 |  | inconclusive: 18.4 µM [rising, single point]
13 | O=c1[nH]c(-c2ccccn2)nc2ccccc12 | inactive: -63.6% | 
14 | CCc1cc(=O)oc2c3c(cc(OCC(=O)NCc4ccccn4)c12)OC(C)(C)CC3 |  | inconclusive: 29.1 µM [cytotoxic, single point]
15 | Cc1onc(-c2ccccc2Cl)c1C(=O)Oc1cccc2cccnc12 |  | inconclusive: 18.4 µM [cytotoxic, partial curve, poor fit]
16 | Cc1cccc(NC(=O)Cn2c(=O)n(CC3CCCO3)c(=O)c3ccccc32)c1 (stereo not given) |  | inconclusive: 13 µM [cytotoxic, partial curve, poor fit]

The list continues.

Row | SMILES | activity change, negative = cytotoxicity | Potency
24 | O=C1CCC(=O)N1OCCOc1ccc2c(c1)CCC2 |  | inconclusive: 14.6 µM [rising, partial curve, poor fit]
25 | COc1cc(CNCCc2ccc(S(N)(=O)=O)cc2)ccc1OCC(=O)NC1CCCCC1 |  | inconclusive: 5.8 µM [rising, full curve]
26 | O=C(C[n+]1cc(-c2ccc(Cl)c(Cl)c2)n2c1CCC2)OCc1ccccc1 |  | inconclusive: 1.3 µM [rising, full curve]
27 | CC(=O)c1c(C)oc2ccc(N(C(C)=O)S(=O)(=O)c3ccc(Cl)c([N+](=O)[O-])c3)cc12 |  | inconclusive: 29.1 µM [cytotoxic, single point]
28 | C/C(=N/NC(=O)c1ccccn1)c1ccco1 |  | active: 20.6 µM
29 | CCN1C(=O)CC(NC2CCN(C(=O)c3ccc(F)cc3)CC2)C1=O (stereo not given) | inactive: -1.69% | 
30 | O=S1(=O)CCOCCCN1Cc1ccccc1 |  | inconclusive: 13 µM [rising, single point]
31 | O=C(N/N=C/c1cc2c(cc1Br)OCO2)c1cccnc1 |  | inconclusive: 5.8 µM [rising, full curve]
32 | N#C/C(=C(/O)COc1ccc(Cl)cc1)c1nc2ccccc2s1 |  | active: 13 µM
33 | CN1/C(=C\C(=O)COC(=O)c2ccc(O)cc2)C(C)(C)c2ccccc21 |  | inconclusive: 18.4 µM [cytotoxic, single point]
34 | Cc1[nH]c2ccccc2c1C1N2CC3(C)CN1CC(C)(C2)C3=O (stereo not given) | inactive: 17.1% | 
35 | COc1ccc(Nc2nc(N3CCCC3)nc(N3CCCC3)n2)c(OC)c1 |  | inconclusive: 4.11 µM [cytotoxic, partial curve]
36 | CCOc1ccc(NC(=O)c2ccccc2NS(=O)(=O)c2ccc(F)cc2)c([N+](=O)[O-])c1 |  | inconclusive: 23.1 µM [cytotoxic, single point]
37 | CCc1ccc2c(c1)C1(NN=C(c3ccc(C)cc3)S1)C(=O)N2 (stereo not given) |  | inconclusive: 4.61 µM [cytotoxic, partial curve]
38 | Cc1cc(=O)[nH]c(SCC(=O)N2CCCCC2)n1 |  | inconclusive: 29.1 µM [cytotoxic, single point]
39 | Nc1[nH]c(C(=O)c2ccccc2)c(-c2ccc([N+](=O)[O-])cc2)c1C(=O)NCCc1c[nH]c2ccccc12 |  | active: 23.1 µM
40 | COc1ccc(-n2c(C)cc(/C=C3/SC(=S)N(C)C3=O)c2C)cc1 | inactive: 7.08% | 
41 | COc1ccc(OC)c(C(C)NC(=O)c2ccc(Br)cc2)c1 (stereo not given) |  | active: 16.4 µM
42 | C(=C\c1ccnc2ccccc12)/c1ccc(N2CCNCC2)cc1 |  | inconclusive: 20.6 µM [cytotoxic, partial curve]
43 | CC(C)OC(=O)c1ccc(N2CCN(c3ccccc3F)CC2)nc1 |  | inconclusive: 13 µM [cytotoxic, partial curve, poor fit]
44 | O=C1c2cccc(OCc3ccc(F)cc3)c2CCN1Cc1ccccc1 |  | inconclusive: 7.31 µM [cytotoxic, full curve, poor fit]
45 | COCCCNC(=O)c1ccc([N+](=O)[O-])cc1 |  | inconclusive: 18.4 µM [rising, partial curve, poor fit]

Reference: PubChem BioAssay AID1347076 (National Center for Advancing Translational Sciences (NCATS), 2019)
